Experimental data taken from PubChem BioAssay (NCATS).
Inconclusive means that the source gave no clear call. Such entries were picked first, then a sample of the others. Potencies of inconclusive entries are doubtful fits and often do not repeat. The source made the active and inactive calls. Unless noted, the call rests on the fitted dose curve; in most records, active means well fitted cell-killing curve with a large enough effect; inconclusive means small, poorly fitted or top-dose-only effect, or effect the other way; inactive means no such curve, though single readings can be large or run the other way.

Tests used:
[1] = Quantitative High-Throughput drug screen in 47 multiple myeloma cell lines against the NCATS MIPE library collection: XG6_PLB cell viability assay (AID 1919865); conditions: XG6 myeloma viability, CellTiter-Glo ATP luminescence, 48 h; viability (% of control): at 45.8 µM (top of the series); further: nearly all actives have a fitted effect of over 40% in size
In short: (§1)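 ATP-based CellTiter-Glo luminescence after 48 h drug exposure (37 °C, 5% CO2) of 500 myeloma cells per well. DMSO-only wells set 100% viability, media-only wells 0%; MIPE 4.0 library added by pin tool.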

[2] = Quantitative High-Throughput drug screen in 47 multiple myeloma cell lines against the NCATS MIPE library collection: XG1_PLB cell viability assay (AID 1919866); conditions: CellTiter-Glo ATP, 48 h; viability: at 45.8 µM (top of the series); further: nearly all actives have a fitted effect of over 35% in size
In short: as §1

[3] = Quantitative High-Throughput drug screen in 47 multiple myeloma cell lines against the NCATS MIPE library collection: VP6_DJ cell viability assay (AID 1919867); conditions: ATP luminescence, 48 h; viability (% of DMSO): at 45.8 µM (top of the series); further: nearly all actives have a fitted effect of over 40% in size
In short: as §1

[4] = Quantitative High-Throughput drug screen in 47 multiple myeloma cell lines against the NCATS MIPE library collection: UTMC2_PLB cell viability assay (AID 1919868); conditions: CellTiter-Glo ATP luminescence, 48 h; viability (% of DMSO control): at 45.8 µM (top of the series); further: nearly all actives have a fitted effect of over 55% in size
In short: as §1

[5] = Quantitative High-Throughput drug screen in 47 multiple myeloma cell lines against the NCATS MIPE library collection: PE2_PLB cell viability assay (AID 1919869); conditions: PE2_PLB myeloma cells viability, ATP luminescence, 48 h; viability (% of control): at 45.8 µM (top of the series); further: nearly all actives have a fitted effect of over 35% in size
In short: as §1

[6] = Quantitative High-Throughput drug screen in 47 multiple myeloma cell lines against the NCATS MIPE library collection: OPM2_DSMZ cell viability assay (AID 1919872); further: nearly all actives have a fitted effect of over 30% in size
In short: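 We plated 500 myeloma cells per well, pinned in MIPE 4.0 compounds, and incubated for 48 hours at 37C. ATP was then quantified with CellTiter-Glo, with DMSO and media-only wells defining 100% and 0%.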

[7] = Quantitative High-Throughput drug screen in 47 multiple myeloma cell lines against the NCATS MIPE library collection: KMS11_JCRBsus cell viability assay (AID 1919873); conditions: KMS11 myeloma viability, CellTiter-Glo ATP luminescence, 48 h; viability (% of control): at 45.8 µM (top of the series); further: nearly all actives have a fitted effect of over 50% in size
In short: as §1

[8] = Quantitative High-Throughput drug screen in 47 multiple myeloma cell lines against the NCATS MIPE library collection: KMS28BM_JCRB cell viability assay (AID 1919874); further: nearly all actives have a fitted effect of over 35% in size
In short: as §1

[9] = qHTS for identification of novel therapeutic agents for treatment of microphthalmiaassociated transcription factor (MiT) renal cell carcinoma (RCC) (AID 1963991; calls by dose curve); conditions: TFE3-RCC UOK109 viability, CellTiter-Glo, 48 h; active = Z-AUC below -0.8 in all three lines
In short: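 Three TFE3-fusion RCC lines (UOK109, UOK124, UOK145), 500 cells/well in complete medium, were treated with MIPE 4.0 compounds for 48 hours at 37 C. Viability was by CellTiter-Glo luminescence, normalized to DMSO (100%) and empty wells (0%); curves fitted over 11 concentrations.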

[10] = Quantitative High-Throughput drug screen in 47 multiple myeloma cell lines against the NCATS MIPE library collection: PCM6_Riken cell viability assay (AID 1919870); conditions: CellTiter-Glo ATP, 48 h; viability (% of control): at 45.8 µM (top of the series); further: nearly all actives have a fitted effect of over 30% in size
In short: as §1

[11] = Quantitative High-Throughput drug screen in 47 multiple myeloma cell lines against the NCATS MIPE library collection: RPMI8226_ATCC cell viability assay (AID 1919871); further: nearly all actives have a fitted effect of over 30% in size
In short: as §1
Potency means the concentration at half of the fitted maximal effect.

Nc1ccc(-c2ccc3ncc4ccc(=O)n(-c5cccc(C(F)(F)F)c5)c4c3c2)cn1
inconclusive: Potency [1] 0.003 µM [cytotoxic, full curve] | Potency [2] 0.003 µM [cytotoxic, full curve] | Potency [3] 0.0047 µM [cytotoxic, full curve] | Potency [4] 0.0042 µM [cytotoxic, full curve] | Potency [5] 0.0033 µM [cytotoxic, full curve] | Potency [7] 0.0372 µM [cytotoxic, full curve] | Potency [8] 0.0235 µM [cytotoxic, full curve]
active: Potency [6] 0.0059 µM | Potency [9] 3.32 µM

CCc1ccc(C=C2SC(=S)NC2=O)cc1
inconclusive: Potency [1] 20.9 µM [cytotoxic, single point] | Potency [2] 20.9 µM [cytotoxic, single point] | Potency [3] 14.8 µM [cytotoxic, partial curve] | Potency [4] 1.18 µM [cytotoxic, full curve, poor fit] | Potency [5] 18.7 µM [cytotoxic, partial curve] | Potency [10] 26.4 µM [cytotoxic, single point] | Potency [7] 23.5 µM [cytotoxic, single point]

CC[C@]1(O)C[C@H]2CN(CCc3c([nH]c4ccccc34)[C@@](C(=O)OC)(c3cc4c(cc3OC)N(C=O)[C@H]3[C@@](O)(C(=O)OC)[C@H](OC(C)=O)[C@]5(CC)C=CCN6CC[C@]43[C@@H]65)C2)C1
inconclusive: Potency [2] 0.0019 µM [cytotoxic, partial curve, poor fit] | viability (% of DMSO) [3] 22.1% [cytotoxic] | Potency [5] 0.0093 µM [cytotoxic, full curve] | Potency [10] 0.0053 µM [cytotoxic, full curve] | Potency [7] 0.0015 µM [cytotoxic, full curve] | Potency [8] 0.059 µM [cytotoxic, partial curve, poor fit]
inactive: Potency [1]
active: Potency [4] 0.0093 µM | Potency [9] 0.0662 µM

O=c1oc2cc(O)ccc2s1
inconclusive: Potency [10] 0.0132 µM [rising, full curve, poor fit] | Potency [11] 26.4 µM [cytotoxic, single point]
inactive: Potency [1] | Potency [2] | Potency [3] | Potency [4] | Potency [7] | Potency [8]

COc1ccc(C2CC(c3ccccc3)=NN2c2ccc(S(N)(=O)=O)cc2)cc1 (centres undefined)
active: Potency [1] 18.7 µM | Potency [3] 16.6 µM
inconclusive: Potency [2] 33.2 µM [cytotoxic, single point] | Potency [4] 23.5 µM [cytotoxic, partial curve, poor fit] | Potency [11] 20.9 µM [cytotoxic, partial curve, poor fit] | Potency [7] 20.9 µM [cytotoxic, partial curve] | Potency [8] 33.2 µM [cytotoxic, single point] | Potency [9] 18.7 µM [falling, single point]

O=NN(CCCl)C(=O)NCCCl
inactive: Potency [1] | Potency [2] | Potency [3] | Potency [10] | Potency [11]
inconclusive: Potency [4] 11.8 µM [rising, single point] | Potency [7] 33.2 µM [rising, single point] | Potency [8] 10.5 µM [rising, partial curve]

COC(=O)C1=CO[C@@H](O)[C@@H]2C(CO)=CC[C@@H]12
active: Potency [11] 20.9 µM
inconclusive: Potency [1] 26.4 µM [cytotoxic, single point] | Potency [2] 29.6 µM [cytotoxic, single point] | Potency [3] 23.5 µM [cytotoxic, partial curve] | Potency [4] 20.9 µM [cytotoxic, partial curve, poor fit] | Potency [10] 18.7 µM [cytotoxic, partial curve] | Potency [7] 20.9 µM [cytotoxic, partial curve, poor fit] | Potency [8] 23.5 µM [cytotoxic, single point] | Potency [9] 20.9 µM [partial curve, poor fit]

COc1ccccc1OCC(O)CN1CCN(CC(=O)Nc2c(C)cccc2C)CC1 (centres undefined)
inactive: Potency [1] | Potency [2] | Potency [3] | Potency [6] | Potency [8]
inconclusive: Potency [4] 10.5 µM [rising, full curve, poor fit] | Potency [10] 0.0017 µM [rising, full curve, poor fit] | Potency [11] 2.09 µM [rising, partial curve, poor fit]

O=c1c2ccccc2nc2n1CCc1c-2[nH]c2ccccc12
inconclusive: Potency [2] 37.2 µM [cytotoxic, single point] | Potency [5] 20.9 µM [cytotoxic, single point] | Potency [7] 16.6 µM [cytotoxic, partial curve] | Potency [8] 37.2 µM [cytotoxic, single point] | Potency [9] 0.187 µM
inactive: Potency [1] | Potency [3] | Potency [4]

CN1CCN(C2=Nc3cc(Cl)ccc3Nc3ccccc32)CC1
inconclusive: Potency [1] 16.6 µM [cytotoxic, partial curve, poor fit] | Potency [2] 20.9 µM [cytotoxic, single point] | Potency [3] 1.18 µM [cytotoxic, full curve, poor fit] | Potency [4] 26.4 µM [cytotoxic, partial curve, poor fit] | Potency [10] 18.7 µM [cytotoxic, partial curve, poor fit] | Potency [7] 33.2 µM [cytotoxic, single point] | Potency [9] 16.6 µM [falling, partial curve, poor fit]
inactive: Potency [11] | Potency [8]

CC(C)(C)OC(=O)CN(Cc1ccc(Cl)cc1)Cc1ccc([N+](=O)[O-])s1
inconclusive: Potency [1] 23.5 µM [cytotoxic, partial curve, poor fit] | Potency [2] 9.35 µM [cytotoxic, partial curve, poor fit] | Potency [3] 8.33 µM [cytotoxic, single point] | Potency [4] 0.935 µM [cytotoxic, full curve, poor fit] | Potency [5] 18.7 µM [cytotoxic, partial curve, poor fit] | Potency [11] 29.6 µM [cytotoxic, partial curve, poor fit] | Potency [6] 18.7 µM [cytotoxic, partial curve, poor fit] | Potency [7] 26.4 µM [cytotoxic, single point] | Potency [8] 23.5 µM [cytotoxic, partial curve, poor fit]

Cc1nc(-c2ccc(OCC(C)C)c(C#N)c2)sc1C(=O)O
inconclusive: Potency [1] 0.003 µM [rising, full curve, poor fit] | Potency [2] 4.18 µM [cytotoxic, partial curve, poor fit] | Potency [3] 0.418 µM [cytotoxic, full curve, poor fit]
inactive: Potency [4]

O=C1c2c(O)cc(O)cc2O[C@H](c2cc(O)c(O)c(O)c2)[C@H]1O
inconclusive: Potency [1] 0.743 µM [cytotoxic, full curve, poor fit] | Potency [2] 0.935 µM [cytotoxic, full curve, poor fit] | Potency [11] 16.6 µM [cytotoxic, partial curve, poor fit] | Potency [7] 14.8 µM [cytotoxic, partial curve, poor fit] | Potency [9] 8.33 µM [falling, partial curve, poor fit]
inactive: Potency [3] | Potency [4]

O=C(O)C=Cc1ccc(O)c(O)c1
inactive: Potency [4]
inconclusive: Potency [1] 9.35 µM [cytotoxic, partial curve, poor fit] | Potency [2] 0.0033 µM [rising, full curve, poor fit] | Potency [3] 1.32 µM [cytotoxic, full curve, poor fit] | Potency [11] 23.5 µM [cytotoxic, single point] | Potency [7] 33.2 µM [cytotoxic, single point]

CCn1cc(C(=O)O)c(=O)c2cc(F)c(N3CCNC(C)C3)c(F)c21 (centres undefined)
inactive: Potency [1] | Potency [2] | Potency [3] | Potency [11]
inconclusive: Potency [4] 9.35 µM [rising, partial curve, poor fit]
